At least one compound was matched to its structure with a doubt left.
What was measured:
[1] = test system: small (<20 μm) DRG neurons; test: Neurite outgrowth of DRG neurons co-cultured with ALKAL2-transfected HEK cells; assay type: cell-based, mouse; conditions: Lorlatinib, ALKAL2 co-culture
From the text: Previous work has shown that the ALK receptor plays a central role in the development of neural-crest derived cells and neurite outgrowth (18, 19, 37, 38). Using a co-culture system, we tested whether secreted ALKAL2 is able to activate ALK on DRG neurons, thus promoting neurite outgrowth through an autocrine/paracrine signaling process. In this assay, HEK cell monolayers seeded in the upper chamber of a transwell were transfected with ALKAL2, and then placed above acutely dissociated DRG neurons seeded into the lower chamber (FIG. 4A). DRG neurons were exposed to HEK-secreted ALKAL2 for a further 16 hours, after which, neurite growth was assessed on small and medium size neurons (FIG. 4A). […]
For the neurite outgrowth assay, cultured DRG neurons were either treated with increasing concentrations ([…], 1 nM, 10 nM, 100 nM and 1 μM) of recombinant mouse ALKAL2 (MyBioSource LLC, MBS14253) or co-cultured with ALKAL2 expressing HEK cells (see above) in Neurobasal A medium. […] Alexa-488 antibody was visualized by excitation with an argon laser […] and emission detected using a long-pass 530 nm filter. Alexa-555 antibody was visualized by excitation at 543 nm with a HeNe laser, and emission detected using a 585-615 nm band-pass filter.

[2] = test system: small DRG neurons; test: Excitability of small DRG neurons exposed to ALKAL2 (current clamp); assay type: cell-based, mouse; conditions: Lorlatinib (1 μM) added into DRG culture media with ALKAL2 10 nM, 16 h
Protocol: DRG neurons were harvested from adult mice and enzymatically dissociated in Hank's balanced salt solution (HBSS) containing 2 mg/ml collagenase type I and 4 mg/ml dispase (Invitrogen) for 45 min at 37° C. […] Electrophysiological recordings were conducted using an external solution containing (in mM): 140.0 NaCl, 1.5 CaCl2, 2.0 MgCl2, 5.0 KCl, 10.0 HEPES, 10.0 D-glucose, pH 7.4 adjusted with NaOH, on the stage of an inverted epi-fluorescence microscope (Olympus IX51). DRG neuron were recorded based on size, knowing that TRPV1 is expressed in small neurons […], and pHluorin fluorescent signal. Action potentials were recorded using current clamp. Borosilicate glass (Harvard Apparatus Ltd.) pipettes were pulled and polished to 2-5 MQ resistance with a DMZ-Universal Puller (Zeitz-Instruments GmbH.) and filled with an internal solution containing (in mM): 140.0 KCl, 5.00 NaCl, 1 CaCl2, 1.0 EGTA, 10.0 HEPES, 1.0 MgCl2, 3.0 ATP Na2, pH 7.3 adjusted with KOH. All solutions were prepared and used at room temperature (22±2° C.) and their osmolarity adjusted to 310 mOsm. […] Recordings were performed using an Axopatch 200B amplifier (Axon Instruments, Foster City, CA, USA). Current-clamp protocols were applied using pClamp 10.4 software (Axon Instruments). […] Average DRG neuron capacitance was 12.45±0.85 pF. […]

C[C@H]1Oc2cc(cnc2N)-c2c(nn(C)c2C#N)CN(C)C(=O)c2ccc(F)cc21 [Lorlatinib]
effect on ALKAL2-mediated neurite outgrowth [1]: able to block ALKAL2-mediated neurite outgrowth
effect on ALKAL2-induced increase in AP frequency [2]: reversed

Reference: patent US20250002608A1, “TREATMENT OF PAIN” (UTI Limited Partnership, priority 2021, published 2025)
